The results in this text go back to paper PMC8149633.

By UniProt entry, the sequences of proteins in these tests, tags left out.
UniProt Q12884: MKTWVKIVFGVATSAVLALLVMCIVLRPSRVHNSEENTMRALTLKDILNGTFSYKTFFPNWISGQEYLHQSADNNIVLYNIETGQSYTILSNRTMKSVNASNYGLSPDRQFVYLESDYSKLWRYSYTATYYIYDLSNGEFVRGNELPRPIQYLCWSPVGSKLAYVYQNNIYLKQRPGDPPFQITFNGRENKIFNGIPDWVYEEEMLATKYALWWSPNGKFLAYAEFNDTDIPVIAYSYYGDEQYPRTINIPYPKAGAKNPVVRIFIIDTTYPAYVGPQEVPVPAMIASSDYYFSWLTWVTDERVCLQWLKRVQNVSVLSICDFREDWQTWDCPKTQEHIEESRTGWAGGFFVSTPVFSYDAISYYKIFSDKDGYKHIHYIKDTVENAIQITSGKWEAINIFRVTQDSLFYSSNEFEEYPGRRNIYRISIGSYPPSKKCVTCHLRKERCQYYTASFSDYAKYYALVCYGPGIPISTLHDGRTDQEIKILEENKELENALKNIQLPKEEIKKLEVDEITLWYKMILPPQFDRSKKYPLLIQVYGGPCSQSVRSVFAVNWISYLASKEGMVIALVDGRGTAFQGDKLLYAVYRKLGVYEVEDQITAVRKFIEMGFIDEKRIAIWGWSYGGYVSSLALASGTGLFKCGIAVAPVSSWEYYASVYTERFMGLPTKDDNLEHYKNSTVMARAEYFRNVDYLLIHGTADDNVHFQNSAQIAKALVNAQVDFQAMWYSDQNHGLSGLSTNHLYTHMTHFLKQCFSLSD
UniProt P06733: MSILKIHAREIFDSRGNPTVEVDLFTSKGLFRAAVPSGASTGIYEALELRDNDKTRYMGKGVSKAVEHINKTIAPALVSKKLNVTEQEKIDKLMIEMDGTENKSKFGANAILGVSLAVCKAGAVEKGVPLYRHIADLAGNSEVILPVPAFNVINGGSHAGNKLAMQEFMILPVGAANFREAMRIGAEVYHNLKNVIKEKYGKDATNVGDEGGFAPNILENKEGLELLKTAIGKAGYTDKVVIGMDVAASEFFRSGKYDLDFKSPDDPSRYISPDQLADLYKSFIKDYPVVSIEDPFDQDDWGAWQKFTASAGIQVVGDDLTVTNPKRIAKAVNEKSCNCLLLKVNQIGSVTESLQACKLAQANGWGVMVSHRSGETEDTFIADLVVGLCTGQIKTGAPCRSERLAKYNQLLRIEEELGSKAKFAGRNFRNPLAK

This test has as its target Fibroblast activation protein alpha (FAP), overexpressed in HCT116-FAP and HCT8-FAP cells (UniProt Q12884). The test can be described thus: co-IP; lysates of HCT116-FAP and HCT8-FAP cells immunoprecipitated with anti-FAP or anti-ENO1 antibody (IgG as negative control), protein A agarose, 4 °C, western blot. For orientation: Immunoblotting shows a protein as a band on a membrane.

Results are given in words; binding and its absence hold for the method and conditions named. Binding seen in cells or lysates may run through a third protein. Some results given as binding are weak or reduced against the parent protein; the word gives no strength.

For the substance “Enolase1 (ENO1) (from UniProt P06733 1-434)”, the binding entry is “binds”.
